The source of these data is publication PMC4350430.

The chains behind the UniProt entries cited, without tags or fusion partners. Where a name states a change or a piece, a line headed by the entry shows the natural chain unless it says otherwise.
UniProt O04294: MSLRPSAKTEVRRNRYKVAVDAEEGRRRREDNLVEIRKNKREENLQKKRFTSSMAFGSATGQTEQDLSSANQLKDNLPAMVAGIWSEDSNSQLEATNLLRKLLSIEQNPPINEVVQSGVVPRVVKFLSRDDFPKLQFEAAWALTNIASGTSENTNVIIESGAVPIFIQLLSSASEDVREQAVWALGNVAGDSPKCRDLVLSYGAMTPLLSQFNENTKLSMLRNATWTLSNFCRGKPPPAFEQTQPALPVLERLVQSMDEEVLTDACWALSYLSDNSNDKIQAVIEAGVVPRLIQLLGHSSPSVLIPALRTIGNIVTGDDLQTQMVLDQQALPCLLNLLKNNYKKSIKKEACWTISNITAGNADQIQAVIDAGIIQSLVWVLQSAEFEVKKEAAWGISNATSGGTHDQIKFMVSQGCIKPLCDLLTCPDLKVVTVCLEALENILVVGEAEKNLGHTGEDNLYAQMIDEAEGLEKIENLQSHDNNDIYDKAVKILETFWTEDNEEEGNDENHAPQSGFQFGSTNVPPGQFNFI
UniProt Q29PT3: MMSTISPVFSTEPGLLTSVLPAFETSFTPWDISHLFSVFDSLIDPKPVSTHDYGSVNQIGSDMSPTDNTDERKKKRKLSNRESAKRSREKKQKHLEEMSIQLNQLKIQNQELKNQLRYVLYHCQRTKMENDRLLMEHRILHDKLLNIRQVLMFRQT

No constants are given. Whether binding was seen depends on the method and setting. Binding seen in cells or lysates may run through a third protein. For some assays here: Binding calls can cover weak binding; strength is not graded here. For some assays here: Sequences can lack the tags named with a protein.

Assay [1] concerns the target T1, GFP-tagged importin-α9 (Arabidopsis thaliana) (UniProt F4KF65).
T1 sequence: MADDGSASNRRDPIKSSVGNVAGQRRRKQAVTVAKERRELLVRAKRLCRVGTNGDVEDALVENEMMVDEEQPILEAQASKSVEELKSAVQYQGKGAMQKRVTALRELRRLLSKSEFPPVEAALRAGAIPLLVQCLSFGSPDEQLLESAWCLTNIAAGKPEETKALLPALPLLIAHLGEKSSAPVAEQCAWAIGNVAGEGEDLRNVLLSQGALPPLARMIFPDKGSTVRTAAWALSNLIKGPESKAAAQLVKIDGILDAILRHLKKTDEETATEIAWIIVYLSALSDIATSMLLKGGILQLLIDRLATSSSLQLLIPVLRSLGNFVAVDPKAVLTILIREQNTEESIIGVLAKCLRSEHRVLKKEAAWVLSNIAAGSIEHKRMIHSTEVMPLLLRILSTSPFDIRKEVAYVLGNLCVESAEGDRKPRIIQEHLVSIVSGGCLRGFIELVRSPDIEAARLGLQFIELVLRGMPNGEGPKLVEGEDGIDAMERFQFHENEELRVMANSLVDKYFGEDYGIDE
Put plainly: co-IP; GFP- or YFP-tagged importin-α co-expressed with StrepII-3xHA (HS)-tagged cargo in N. benthamiana, 48 h; importin-α IP-ed (GFP-Trap_A beads), co-purifying HS protein detected by α-HA western blot; 50 mM Tris, 150 mM NaCl, 10% glycerol, 1 mM EDTA, 5 mM DTT, pH 7.5, 4°C 2 h.

Assay [2] addresses MOS6–YFP^C (Arabidopsis thaliana) (UniProt O04294). The assay can be described thus: split reporter; BiFC: MOS6–YFP^C co-expressed with YFP^N-tagged cargo in epidermal cells of N. benthamiana, nuclei imaged 48 h post infiltration; read-out: speckles at the nuclear rim (a nucleoplasmic YFP signal was seen with all pairs).

In the case of “StrepII-3xHA (HS)-tagged HaRxL106 (Hyaloperonospora arabidopsidis)”, the binding result in assay [1] is recorded as “no binding”.
As to YFP^N–bZIP5 (from UniProt Q29PT3), the binding result in assay [2] is on record as “binds”.
